# Screen size: about 52,000 sequences; about 210 (0.4%) were called active.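 How the source made its calls: active means gene whose silencing raises cell survival under the drug, median off-target-corrected z-score across its silencing RNAs 2 or more; inactive means the rest.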 The list shows a part of the results.
# Test: Resistance to Poly (ADP-Ribose) Polymerase inhibitor: Gene Identification via Genome-wide siRNA Screen
# Conditions: mouse BRCA2 R2336H ES cells, olaparib, CellTiter-Glo viability; hits give high values
# Method in brief: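 Genome-wide siRNA screen (3 siRNAs/gene, 20 nM) in mouse ES cells carrying hypomorphic BRCA2 R2336H; olaparib 500 nM added 48 h post-transfection, CellTiter-Glo viability 72 h later. Normalized to plate-median negative control; MAD z-scores, gene median, seed-adjusted.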
row,Sequence,z-score
1,GGCUUUAACUAAUUAUGGATT against Pcm1,inactive: 0.363
2,GGUGGACUAUCCUAAGCACTT against Pdzk4,inactive: 0.604
3,GCUAAAGUGAGCAGCGGGATT against Rgs19ip3,inactive: -0.816
4,CCAUUGAUCUCGUCUCCCATT against Impdh1,inactive: -0.511
5,GAGUCAAAACAGCAGUGCATT against Cpsf4,inactive: -0.477
6,GCUUUUCUUCUUCAUCUCUTT against Olfr1336,inactive: 0.0717
7,GCUGCUGAGGUACUUGCUATT against Pcsk1n,inactive: -1.22
8,GCACAUAGUGUAUCUAUACTT against Cd86,inactive: 0.859
9,GCCUGAUGAAGACAUGCAUTT against BC050210,inactive: 1.78
10,GGUAACCAUUUCUUCUGUUTT against Crym,inactive: -1.38
11,GGCUUCAAGAUGUUCGGCUTT against BC023181,inactive: 1.09
12,GCAAUGGUUUCGGCUACGATT against Hoxb3,inactive: 0.478
13,GCUGAGCAAUCUGUAGGGCTT against Spry3,inactive: 1.87
14,GGCAAAAUCCCAUACGAAATT against Itk,inactive: 1.46
15,CGCUUUCACGACAUGGAACTT against Tas1r1,inactive: 1.33
16,GGAGAAGAUCGGAUGGCGATT against Itgb5,inactive: -0.391
17,GGAGGACACAGAUUCUACUTT against 9830169C18Rik,inactive: 1.82
18,CCACAGGUUACAACAUAAATT against Pign,inactive: -0.0296
19,CCUAUCAUUGGACCUUAAATT against 4930435C18Rik,inactive: -0.879
20,GGAUAUGACUAGGUGAAUUTT against Ebf3,inactive: -0.0915
21,GGAGUCAUAUCACAACUCATT against Ldb2,inactive: -0.227
22,GGGAAUAUAAUUAAAGGUGTT against Sptlc2,inactive: -1.3

row,Sequence,z-score
1,GCUUCAAAAGUCUCCAUUGTT against Gm587,inactive: -0.254
2,GUGGGAAUUCUGAAAAAUATT against V1re7,inactive: -0.115
3,CCUCUCUAGGCCAUGUUCUTT against 1110008P14Rik,inactive: -2.04
4,GGAAAUUUUUUCCUUUCCUTT against Olfr211,inactive: -0.146
5,GGCUGAGGUGCUACAUACATT against BC005752,inactive: -0.03
6,GGUCACAAGUGUAAUACUATT against Bag4,inactive: -2.34
7,GCACAAGACUCUUUCAGUUTT against Lip1,inactive: 0.234
8,GGAAUUCAAGUUCAUCCUGTT against P2ry4,inactive: 0.0867
9,GCAACAAAGGCUUUCCCUATT against Tusc5,inactive: -1.9
10,GGCCAUUUUGGAUCAUACATT against Actl6a,inactive: -1.98
11,GGUUCAGUAUAUCAUCUCUTT against Znf335,inactive: -3.03
12,GGUAAUCUUUGAAAACCCUTT against 9030406N13Rik,inactive: 0.772
13,GGACUACAGAUGCAUACCATT against 9830163H01Rik,inactive: -0.329
14,GCCAUACCCUCCAAUAAAGTT against 1810043G02Rik,inactive: -0.367
15,CGCAGGAACACCGAUGUAUTT against D8Ertd319e,inactive: -0.81
16,GCUUACAUGCACUAGCCUGTT against AI114950,inactive: -0.369
17,GGGACACCUUCCGUAACUATT against Gcdh,inactive: -0.691
18,GGAUAUGGCCCAGUUCAUATT against Gfer,inactive: -0.951
19,GCUCACACUUUAAAGAGGGTT against Supv3l1,inactive: 0.449
20,AGUGCUUUGUAAUGCUUGGTT against Hist1h2bg,inactive: -1.23
21,GGAGUGGAUGUGAUUAUCATT against Dao1,inactive: 0.369
22,GGCAUGUUUGAGUUUCAGATT against Lsm4,inactive: -2.43

row,Sequence,z-score
1,GGACCUUACUAACUUGACCTT against 4921529O18Rik,inactive: 1.08
2,GGAUCUGAAAGACUAUUUCTT against Tardbp,inactive: 0.109
3,GGCAAUGAGAAAGUUACUCTT against Olfr1102,inactive: 0.632
4,GGGUAGAAUUGUUUUCCUUTT against Clic4,inactive: 1.45
5,GGCUGUAAGGGAACAGCUATT against Irf2bp1,inactive: 0.313
6,GCUAGAUUUGAUGGUUCAGTT against Cacng5,inactive: -0.84
7,GGCAAGAGCGGAAAAUCACTT against Foxo1,inactive: -0.519
8,CCUUGGAAAAGCUUGAUGUTT against Pip5k1b,inactive: -2.5
9,GGUGAAGGUGAACAAGGACTT against Myh9,inactive: 0.383
10,GGAAACAACCUGCUGAUCGTT against Sp2,inactive: 0.563
11,GCUGAAACAGUUUGAGCGATT against Bcar1,inactive: -1.01
12,GGGUGCAUUUAAGUUCUAATT against Nrbf2,inactive: -1.06
13,GGUUACGUGAGGAUAAAAUTT against Gm587,inactive: -0.827
14,GGACUAUUUCCUUUGUGGGTT against Olfr31,inactive: 0.697
15,GGAGCAGUGGGAAAUUCCATT against Narg2,inactive: -1.23
16,GGAAGCUUACAUUGUGAAGTT against Unc5c,inactive: 0.265
17,GGAGAGGACAAAUUAAAGATT against Ywhae,inactive: 1.7
18,GCAUGCGUGAGAAACUGAUTT against Clra,inactive: -1.62
19,GGUAUUAAGUAGGUGUUAATT against Sec22l3,inactive: -0.268
20,GGCAUUCAAGGAUAUGCUGTT against Xpr1,inactive: -0.759
21,GGGACCCUUCUACAAAAACTT against Pias3,active: 2.3
22,UAUUUAUCCACUACUGGAATT against Olfr969,inactive: -0.954

row,Sequence,z-score
1,GCAGAUGAUACGCAUGCAGTT against 1810060J02Rik,inactive: -0.771
2,GGUGCUGAAGAUGACAUCCTT against A930041I02Rik,inactive: 1.3
3,GGACAACUCGAGUCUUAAATT against Poln,inactive: -2.2
4,GGUUUAACAACUUACUUUCTT against Dmgdh,inactive: 0.0843
5,CGCAUCAUCAAUGAUGACCTT against Crmp1,inactive: 0.654
6,GCCAUUAGUGUGGAGUACUTT against Mrgprb8,inactive: -1.06
7,CGUGGAAGGCAAGAUGCAUTT against Tmem55b,inactive: 0.272
8,GCCUGAACUUUGACAGAACTT against Cxcr3,inactive: -0.0574
9,GGUUACAGAGCAAAGUCCUTT against Zfml,inactive: -0.00597
10,CCCGGAGUGGAAUUUACAGTT against Llglh,inactive: -1.46
11,CCUUACCGCCUUAAACUGATT against Mylip,inactive: 0.998
12,GGAUAGAGAUGGUUGUCCATT against Phf5a,inactive: -2.97
13,GGAAGAGAAGAUUUUGGAUTT against Il1f9,inactive: 0.411
14,GGAAGGAAAUAAAAAGGGATT against Pcdhb20,inactive: 1.07
15,GGAAAAUGUGAAACAGCUATT against Dhx40,inactive: 0.452
16,GGGUUUCUGUUAAUCCACATT against Hist1h3g,inactive: -1.25
17,GGGAAAAACACCAUUUCCUTT against Olfr275,inactive: 0.114
18,GGUAGAGGUUAUAUAGGCATT against Ms4a11,inactive: -0.137
19,GGAAUUUCAAGACAAAGGUTT against Scap2,inactive: -1.11
20,GCAUUUGAAAUGCUACAGCTT against Rhoq,inactive: 0.865
21,CCGUAUAUUGACCUAAUGGTT against Ppp2ca,inactive: -0.56
22,GGCAUAAACUACAUUUGAUTT against Edg3,inactive: -0.282

# Some of the entries above in another layout:
row	Sequence	z-score
6	GCCAUUAGUGUGGAGUACUTT against Mrgprb8	inactive: -1.06
9	GGUUACAGAGCAAAGUCCUTT against Zfml	inactive: -0.00597
10	CCCGGAGUGGAAUUUACAGTT against Llglh	inactive: -1.46
13	GGAAGAGAAGAUUUUGGAUTT against Il1f9	inactive: 0.411
17	GGGAAAAACACCAUUUCCUTT against Olfr275	inactive: 0.114
22	GGCAUAAACUACAUUUGAUTT against Edg3	inactive: -0.282

# Continued.

row,Sequence,z-score
1,GGAAAAUUUACACUGACCUTT against Ian3,inactive: 0.443
2,GGGAAGAACAAAUGGUUUUTT against Rpl27,inactive: -3.04
3,GCUGCAUGUUACCUACUUGTT against Pold3,inactive: -0.566
4,GCUGCUCGUUAAAGCCGGATT against Ankrd6,inactive: -0.994
5,CCUUUACACGUAAAAGAAGTT against AW610627,inactive: 0.692
6,GGGACUUCAUCCGUCAAAATT against Dnajd1,inactive: -0.799
7,CGUGAGCACAAAAAUAUUGTT against Fchsd2,inactive: 2.03
8,GGCUCCAACCAACAUUGUUTT against Rpa2,inactive: -3.39
9,GUGUCAUCAUGCCCAAAAUTT against Olfr957,inactive: -1.68
10,GGCCAGACCCGAACUUUGATT against Rnf2,inactive: -2.14
11,GCAGUGAAUGGACUCGAGATT against Pax1,inactive: -0.272
12,GCUUAUGAGUUCAGUUGUGTT against Olfr143,inactive: -0.262
13,GGCUUUAAGCUGGUGAUGGTT against Hmox1,inactive: 0.194
14,GCUUGUCCAAGUUAGGCGATT against Calm4,inactive: -0.137
15,GCAUGUAGUGGAGAAAUGCTT against Bat9,inactive: -0.283
16,GUGUCCAGUCCUAAAACGATT against Trib3,inactive: -0.439
17,GGACCACUUGUAGUAUUUGTT against BC019977,inactive: 0.129
18,GCUUGAAUGGAGCGAAUCGTT against Chat,inactive: 0.489

# — PubChem BioAssay AID1347423 (Functional Genomics Laboratory (NCATS/FGL), 2020)
